# Source: PubChem BioAssay AID493014 (National Center for Advancing Translational Sciences (NCATS), 2011)
# Some of the results follow. Shown are side measurements of this screen, not its main read-out; they come without a call. Compounds called inactive in the main read-out are mostly missing here. Potencies come from curve fits of mixed quality, noted in brackets.
# Test: qHTS Assay to Find Inhibitors of Chronic Active B-Cell Receptor Signaling
# Conditions: ABC-DLBCL IkBa-CBG/CBR reporter, luminescence ratio (green luciferase fused to IkBa over red control in TMD8 lymphoma cells), 4 h
# How it was run: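 Compounds up to 46 uM were incubated four hours with TMD8 cells whose green CBG68 luciferase is fused to IkappaBalpha; red CBR luminescence normalised the signal, and concentration-effect curves were fitted to fusion, red and ratio data.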
# [1] = measured here: CBR red luminescence, cell number
# [2] = measured here: IkBa-CBG green luminescence
Structure (SMILES),AC50 [1],AC50 [2]
CSc1ccccc1C(=O)Nc1nc2ccccc2[nH]1,"10 µM [falling, partial curve, poor fit]",
Cc1csc(NC(=O)CSc2nnc(-c3ccncc3)o2)n1,"10.3 µM [falling, partial curve, poor fit]",
CN(c1ccc(C(=O)N2CCCCC2)cc1)S(C)(=O)=O,"32.6 µM [rising, single point]",
O=C(c1ccc([N+](=O)[O-])cc1)n1nc(-c2ccccc2)nc1NCc1ccccc1,"14.1 µM [falling, partial curve]",
CCCn1nnc(NC(=S)NC(=O)c2ccc(-c3ccc(Br)cc3)o2)n1,,"3.55 µM [falling, full curve]"
O=C(NCCc1ccccn1)c1ccc(OC(F)F)cc1,"12.6 µM [falling, partial curve]",
C(=N\Nc1nc(Nc2ccccc2)nc(N2CCOCC2)n1)/c1c[nH]c2ccccc12,"20 µM [falling, partial curve, poor fit]",
CC(C)C[C@@H](C(=O)NCc1ccco1)N1C(=O)N2CCc3c([nH]c4ccccc34)[C@@]2(C)C1=O,"35.5 µM [falling, single point]",
CC(Sc1nc2ccccc2c(=O)n1CC1CCCO1)C(=O)Nc1ccc(S(N)(=O)=O)cc1 (stereo not drawn),"23.1 µM [falling, partial curve]",
O=C(CCc1ccccc1)N(Cc1cccnc1)c1nc2ccc(F)cc2s1,"35.5 µM [falling, single point]",
Cc1ccccc1Nc1nc(N)c2ccccc2n1,"31.6 µM [falling, single point]",
COC(=O)c1c(NC(=O)CSc2nncs2)sc2c1CCCCC2,"7.94 µM [falling, partial curve, poor fit]",
Cc1ccc(O)c(C(CC(=O)NC(C)C)c2ccccc2)c1 (stereo not drawn),"11.2 µM [rising, partial curve, poor fit]",
COc1ccc(/C=C2/SC(=S)N(CCCC(=O)Nc3cccc(O)c3)C2=O)cc1,"2.24 µM [falling, full curve]",
CCn1nc(C)c(Br)c1-c1nc(-c2cccc(C)c2)no1,"1.78 µM [rising, full curve]",
Cc1cccc(N(CC(=O)NC2CCCC2)C(=O)CCCC(=O)Nc2ccccn2)c1,"3.66 µM [falling, partial curve, poor fit]",
NS(=O)(=O)c1ccc(CCNC(=O)CSc2nc3ccccc3c(=O)n2CCC(=O)N2CCCCC2)cc1,"20 µM [rising, single point]",
CCCn1c(=O)c(C(=O)NNC(=O)c2ccccc2Cl)c(O)c2ccccc21,"3.55 µM [falling, partial curve]",
COCCOC(=O)c1c(N)n(CCCN2CCOCC2)c2nc3ccccc3nc12,"15.8 µM [falling, single point]",
O=C(CCc1ccc(S(=O)(=O)NCc2ccccc2)cc1)NCc1ccc2c(c1)OCO2,"6.51 µM [falling, single point]",
CC1CCN(c2oc(-c3ccccc3Cl)nc2C#N)CC1,"5.62 µM [rising, single point]",

Structure (SMILES),AC50 [1],AC50 [2]
O=C(N/N=C/c1ccccc1C(F)(F)F)c1ccc2nc[nH]c2c1,"0.708 µM [falling, full curve, poor fit]",
Cc1nc(-c2cccc(C(F)(F)F)c2)sc1C(=O)O,"12.6 µM [falling, partial curve]","6.31 µM [rising, full curve, poor fit]"
Cc1ccc(OCc2cc(C(=O)NC(C)Cc3cccnc3)no2)cc1C (stereo not drawn),"25.1 µM [falling, single point]",
CCOC(=O)c1cnc(SCc2nc(N)nc(Nc3ccc(C)cc3)n2)nc1N,"0.13 µM [rising, full curve, poor fit]",
O=C(COc1ccc2ccc(=O)oc2c1)NC1CCCCC1,"29.1 µM [rising, single point]",
Cc1c(OC(C)C(=O)N[C@@H](Cc2ccccc2)C(=O)O)ccc2c3c(c(=O)oc12)CCCC3 (stereo partly drawn),"11.2 µM [falling, partial curve, poor fit]",
CCC(C)C(NC(=O)C1CCC(C)CC1)C(=O)Nc1cc(OC)ccc1OC (stereo not drawn),"20.6 µM [rising, partial curve]","32.6 µM [falling, partial curve, poor fit]"
COc1cccc(/C=N/n2nnnc2N)c1O,"15.8 µM [falling, single point]",
CN(CC(=O)Nc1ccc(Cl)c(C(F)(F)F)c1)C(=O)C1CC(=O)N(Cc2ccco2)C1 (stereo not drawn),"0.651 µM [rising, full curve, poor fit]",
COC(=O)C1=C(C)NC(C)=C(C(=O)OCC2CCCO2)C1c1ccc(Cl)c([N+](=O)[O-])c1 (stereo not drawn),"28.2 µM [falling, single point]",
Cc1nc2cc(S(=O)(=O)N(C)C)ccc2n1-c1ccccc1,"35.5 µM [rising, single point]",
COC(C[C@@H]1O[C@@H]1[C@@H](O)[C@H](C)OCc1ccccc1)OC,"5.62 µM [falling, single point]",
O=C(N/N=C/C(Br)=C\c1ccccc1)c1ccc2nc[nH]c2c1,"5.17 µM [falling, single point]","25.9 µM [falling, partial curve, poor fit]"
S=c1[nH]c(-c2ccc(Cl)cc2)cs1,"1.78 µM [rising, full curve]",
Cc1cc(C(=O)COC(=O)c2ccccc2O)c(C)n1CC1CCCO1 (stereo not drawn),"0.164 µM [rising, full curve, poor fit]",
O=C(O)C1CCCCC1C(=O)Nc1ccc(-c2ccccc2)cc1 (stereo not drawn),"2.24 µM [rising, full curve, poor fit]",
O=C(CSC1=NCCS1)Nc1nc2ccccc2s1,"7.31 µM [falling, partial curve, poor fit]",
Nc1ccc(C(=O)OCc2nc3cc4ccccc4cc3[nH]2)cc1,"3.98 µM [falling, partial curve]",
COc1cccc(C(=O)Nc2cccnc2)c1,"29.1 µM [falling, partial curve, poor fit]",
O=[N+]([O-])c1ccc(N(c2ccccc2)c2ccccc2)cc1,"7.08 µM [rising, partial curve, poor fit]",
CCOC(=O)c1c(CSc2ccccc2)n(C)c2ccc(O)c(CN3CCOCC3)c12,"35.5 µM [falling, single point]",

# Among those listed so far, 12 contain a halogen.
Structure (SMILES),AC50 [1],AC50 [2]
CCCn1nnc(NC(=S)NC(=O)c2ccc(-c3ccc(Br)cc3)o2)n1,,"3.55 µM [falling, full curve]"
O=C(NCCc1ccccn1)c1ccc(OC(F)F)cc1,"12.6 µM [falling, partial curve]",
O=C(CCc1ccccc1)N(Cc1cccnc1)c1nc2ccc(F)cc2s1,"35.5 µM [falling, single point]",
CCn1nc(C)c(Br)c1-c1nc(-c2cccc(C)c2)no1,"1.78 µM [rising, full curve]",
CCCn1c(=O)c(C(=O)NNC(=O)c2ccccc2Cl)c(O)c2ccccc21,"3.55 µM [falling, partial curve]",
CC1CCN(c2oc(-c3ccccc3Cl)nc2C#N)CC1,"5.62 µM [rising, single point]",
O=C(N/N=C/c1ccccc1C(F)(F)F)c1ccc2nc[nH]c2c1,"0.708 µM [falling, full curve, poor fit]",
Cc1nc(-c2cccc(C(F)(F)F)c2)sc1C(=O)O,"12.6 µM [falling, partial curve]","6.31 µM [rising, full curve, poor fit]"
CN(CC(=O)Nc1ccc(Cl)c(C(F)(F)F)c1)C(=O)C1CC(=O)N(Cc2ccco2)C1 (stereo not drawn),"0.651 µM [rising, full curve, poor fit]",
COC(=O)C1=C(C)NC(C)=C(C(=O)OCC2CCCO2)C1c1ccc(Cl)c([N+](=O)[O-])c1 (stereo not drawn),"28.2 µM [falling, single point]",
O=C(N/N=C/C(Br)=C\c1ccccc1)c1ccc2nc[nH]c2c1,"5.17 µM [falling, single point]","25.9 µM [falling, partial curve, poor fit]"
S=c1[nH]c(-c2ccc(Cl)cc2)cs1,"1.78 µM [rising, full curve]",

# Record cards (already shown).
# COc1cccc(C(=O)Nc2cccnc2)c1 is listed with AC50 [1]: 29.1 µM [falling, partial curve, poor fit]
# O=C(COc1ccc2ccc(=O)oc2c1)NC1CCCCC1 is listed with AC50 [1]: 29.1 µM [rising, single point]

# Continuation.

Structure (SMILES),AC50 [1],AC50 [2]
CSCCOC(=O)C1=C(C)NC(=O)NC1c1ccc2c(c1)OCO2 (stereo not drawn),"35.5 µM [rising, partial curve, poor fit]",
CC(=O)c1ccc(N2CCN(C(=O)/C=C/c3ccc(S(=O)(=O)NCc4ccco4)cc3)CC2)cc1,"5.01 µM [falling, partial curve, poor fit]",
COc1ccccc1NC(=S)N/N=C1\CC(C)(C)Oc2ccc(O)cc21,"25.1 µM [falling, single point]","3.16 µM [falling, partial curve, poor fit]"
COc1ccc(C2CC(c3ccncc3)=NN2c2ccc(S(N)(=O)=O)cc2)cc1 (stereo not drawn),,"20.6 µM [falling, partial curve]"
CN(C)c1ccc(C(CC(=O)O)C(=O)O)cc1 (stereo not drawn),"2.51 µM [rising, full curve, poor fit]",
CCC1S/C(=C(\C#N)C(=O)NCc2ccco2)N(c2ccc(F)cc2)C1=O (stereo not drawn),"31.6 µM [falling, partial curve, poor fit]",
C/C(=N\Nc1nc(N)cc(Cl)n1)c1ccc(F)cc1,"1.58 µM [rising, partial curve]",
Cc1ccc2c(CC(=O)NNC(=O)c3ccccc3O)coc2c1,"29.1 µM [falling, single point]",
O=C(NNc1cc(N2CCOCC2)nc(N2CCOCC2)n1)C12CC3CC(CC(C3)C1)C2,"32.6 µM [rising, single point]",
COc1cc(C(=O)OCc2cc(=O)n3ccsc3n2)ccc1OC(C)C,"6.51 µM [rising, single point]",
Cc1ccc(C2=NN(C(=O)c3cccs3)C(c3ccccc3O)C2)cc1 (stereo not drawn),"7.08 µM [falling, full curve, poor fit]",
CCOC(=O)c1cnn(-c2cccc(Cl)c2)c1N,"2.31 µM [rising, partial curve]",
COc1ccc(OC)c(Nc2ncnc3c2cnn3-c2cccc(C)c2)c1,"3.26 µM [falling, full curve]",
CN(Cc1ccccc1N1CCCC1)C(=O)c1cc2ccccc2o1,"0.651 µM [falling, partial curve, poor fit]",
Cc1ccc(SCC(=O)Nc2ccc(N3CCN(C)CC3)c(F)c2)cc1,"14.1 µM [falling, partial curve, poor fit]",
CNC(=S)N/N=C(\C)c1ccc(-n2ccnc2)cc1,"23.1 µM [falling, partial curve]",
CCC(=NCCc1c(C)[nH]c2ccc(C)cc12)C1=C(O)CC(c2ccccc2)CC1=O (stereo not drawn),"25.9 µM [rising, partial curve, poor fit]","23.1 µM [falling, partial curve, poor fit]"
O=C(CCCNC(=O)/C(=C/c1ccc(Br)cc1)NC(=O)c1ccccc1)OCc1ccccc1,"16.4 µM [rising, single point]",
Cc1ccn2cc(C(=O)NCc3ccco3)nc2c1,"10 µM [falling, partial curve, poor fit]",
O=C(Nc1ccc(C(=O)Oc2ccccc2)c(O)c1)c1ccccc1,"6.31 µM [falling, single point]","6.31 µM [rising, partial curve, poor fit]"
